Test results from patent US20200032346A1.
Results are given in words; binding and its absence hold for the method and conditions named. In cells and extracts the contact can be indirect. Some results given as binding are weak or reduced against the parent protein; the word gives no strength.

Amino acid sequences for entries named in this document (tags omitted). A change or cut given only in a name is not applied to a line headed by its entry.
UniProt Q16706: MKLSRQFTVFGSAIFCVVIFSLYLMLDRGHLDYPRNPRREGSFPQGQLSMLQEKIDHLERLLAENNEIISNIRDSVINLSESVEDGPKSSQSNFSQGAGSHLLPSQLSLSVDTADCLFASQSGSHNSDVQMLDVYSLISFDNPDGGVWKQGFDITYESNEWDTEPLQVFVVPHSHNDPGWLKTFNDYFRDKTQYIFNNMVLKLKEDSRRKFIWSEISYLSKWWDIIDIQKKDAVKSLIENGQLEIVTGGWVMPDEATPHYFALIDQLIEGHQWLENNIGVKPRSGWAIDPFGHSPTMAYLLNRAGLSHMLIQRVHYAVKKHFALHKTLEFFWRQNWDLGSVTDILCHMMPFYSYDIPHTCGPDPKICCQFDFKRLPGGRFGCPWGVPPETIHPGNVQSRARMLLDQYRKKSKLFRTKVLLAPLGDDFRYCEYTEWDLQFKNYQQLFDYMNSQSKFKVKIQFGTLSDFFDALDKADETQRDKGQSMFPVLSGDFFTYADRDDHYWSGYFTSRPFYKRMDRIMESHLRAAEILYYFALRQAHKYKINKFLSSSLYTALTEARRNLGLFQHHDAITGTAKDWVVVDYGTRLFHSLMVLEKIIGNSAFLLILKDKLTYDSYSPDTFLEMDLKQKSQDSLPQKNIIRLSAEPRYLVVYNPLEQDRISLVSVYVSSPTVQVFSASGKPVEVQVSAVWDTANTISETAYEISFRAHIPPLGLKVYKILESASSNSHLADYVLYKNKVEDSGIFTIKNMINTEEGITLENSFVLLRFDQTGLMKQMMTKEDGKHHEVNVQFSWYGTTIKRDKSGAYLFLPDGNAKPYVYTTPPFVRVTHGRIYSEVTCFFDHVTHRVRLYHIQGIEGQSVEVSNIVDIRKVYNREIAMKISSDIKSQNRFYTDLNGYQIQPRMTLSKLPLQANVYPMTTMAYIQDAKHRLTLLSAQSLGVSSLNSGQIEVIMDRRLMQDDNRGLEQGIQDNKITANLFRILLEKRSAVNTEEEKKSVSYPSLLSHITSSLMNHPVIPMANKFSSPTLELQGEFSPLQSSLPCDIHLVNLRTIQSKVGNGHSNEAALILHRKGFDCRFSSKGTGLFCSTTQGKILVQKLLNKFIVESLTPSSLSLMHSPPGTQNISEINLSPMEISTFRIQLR

Molecular target: Epidermal growth factor receptor (EGFR) (UniProt P00533)
Assay: co-immunoprecipitation, Western blot

**Q.** With “MAN2A1-FER-FLAG (from UniProt Q16706 1-703; P16591 572-822) (enzyme)” as the substance, how does the binding read?
**A.** Its binding is “binds”.
